# Assay results taken from article doi:10.1101/2020.07.31.223099.
# These are yes or no findings as the source states them, for the method shown. In cells and extracts the contact can be indirect. Some entries that bind do so weakly or less than the wild type. Where a sequence is shown, tags or fusion partners need not be part of it.
# T1: V5-SBP-Smaug1 (full-length human Smaug1 fused to a V5-SBP double tag) (human) (UniProt Q9UPU9)
# T1 sequence: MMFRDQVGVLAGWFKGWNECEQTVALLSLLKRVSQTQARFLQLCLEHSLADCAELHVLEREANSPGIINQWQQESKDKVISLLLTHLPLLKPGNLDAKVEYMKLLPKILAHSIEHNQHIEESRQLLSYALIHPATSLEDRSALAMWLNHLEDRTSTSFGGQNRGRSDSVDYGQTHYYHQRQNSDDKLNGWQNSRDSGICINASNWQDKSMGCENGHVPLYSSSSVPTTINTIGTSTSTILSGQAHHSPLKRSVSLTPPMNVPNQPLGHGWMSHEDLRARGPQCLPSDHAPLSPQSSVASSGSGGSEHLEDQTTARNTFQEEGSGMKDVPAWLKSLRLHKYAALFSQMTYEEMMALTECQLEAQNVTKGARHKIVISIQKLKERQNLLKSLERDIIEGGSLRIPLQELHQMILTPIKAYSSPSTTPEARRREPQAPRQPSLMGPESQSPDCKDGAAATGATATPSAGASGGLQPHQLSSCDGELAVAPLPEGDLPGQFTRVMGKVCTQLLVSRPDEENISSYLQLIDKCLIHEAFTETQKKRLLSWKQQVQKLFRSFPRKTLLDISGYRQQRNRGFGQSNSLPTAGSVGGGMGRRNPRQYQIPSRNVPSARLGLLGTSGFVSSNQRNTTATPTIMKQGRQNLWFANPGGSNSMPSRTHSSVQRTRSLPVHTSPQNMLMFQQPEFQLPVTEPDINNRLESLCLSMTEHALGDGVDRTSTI
# Target: T1, V5-SBP-Smaug1 (full-length human Smaug1 fused to a V5-SBP double tag) (human)
# Experiment: pull-down
row,binding,Binder
1,binds,"SSR1/2-ECFP (SSR1/2-hSmaug1-ECFP, amino acids 2 to 154) (domain or fragment, UniProt Q9UPU9 2-154) MFRDQVGVLAGWFKGWNECEQTVALLSLLKRVSQTQARFLQLCLEHSLADCAELHVLEREANSPGIINQWQQESKDKVISLLLTHLPLLKPGNLDAKVEYMKLLPKILAHSIEHNQHIEESRQLLSYALIHPATSLEDRSALAMWLNHLEDRT"
2,binds,"Smaug1-ECFP (pECFP-N1-hSmaug1) (protein, UniProt Q9UPU9 1-718) MMFRDQVGVLAGWFKGWNECEQTVALLSLLKRVSQTQARFLQLCLEHSLADCAELHVLEREANSPGIINQWQQESKDKVISLLLTHLPLLKPGNLDAKVEYMKLLPKILAHSIEHNQHIEESRQLLSYALIHPATSLEDRSALAMWLNHLEDRTSTSFGGQNRGRSDSVDYGQTHYYHQRQNSDDKLNGWQNSRDSGICINASNWQDKSMGCENGHVPLYSSSSVPTTINTIGTSTSTILSGQAHHSPLKRSVSLTPPMNVPNQPLGHGWMSHEDLRARGPQCLPSDHAPLSPQSSVASSGSGGSEHLEDQTTARNTFQEEGSGMKDVPAWLKSLRLHKYAALFSQMTYEEMMALTECQLEAQNVTKGARHKIVISIQKLKERQNLLKSLERDIIEGGSLRIPLQELHQMILTPIKAYSSPSTTPEARRREPQAPRQPSLMGPESQSPDCKDGAAATGATATPSAGASGGLQPHQLSSCDGELAVAPLPEGDLPGQFTRVMGKVCTQLLVSRPDEENISSYLQLIDKCLIHEAFTETQKKRLLSWKQQVQKLFRSFPRKTLLDISGYRQQRNRGFGQSNSLPTAGSVGGGMGRRNPRQYQIPSRNVPSARLGLLGTSGFVSSNQRNTTATPTIMKQGRQNLWFANPGGSNSMPSRTHSSVQRTRSLPVHTSPQNMLMFQQPEFQLPVTEPDINNRLESLCLSMTEHALGDGVDRTSTI"
